The full ranking holds about 1,700 compounds; the median of “T2 sensor activation Q score (MG/GFP ratio z-score vs DMSO controls)” is about 0.3, and the highest 2% start at about 1.9. The list shows a part of the results.
tested on: ppGalNAc-T2 sensor; assay: T2 sensor activation Q score (MG/GFP ratio z-score vs DMSO controls) (SD units); higher = more sensor activation (inhibition of ppGalNAc-T2 glycosylation); conditions: HEK293 sensor cells; 10 µM; 6 h
Protocol: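 Cells were treated with compound at 10 uM for 6 h, then MG/GFP ratio was read by flow cytometry (10,000 cells per well, duplicate wells). Q = (R - R_neg)/SD_neg relative to DMSO vehicle controls; the signal rises when the glycosyltransferase is inhibited.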

SMILES	T2 sensor activation Q score
CC(C)=NNc1ncnc2nc[nH]c12	1.25
CCC/C(C)=C/c1ccc(CC)cn1	-0.95
Cc1ccccc1NC(=O)Oc1cccc(OC(=O)c2ccccc2)c1	0.7
CC1(c2ccc3ccccc3c2)CCC(=O)O1 (stereo unspecified)	0.05
CCCCCc1cc(=O)[nH]c(=S)[nH]1	-1.65
COC1OC(CO)C(N=C(C)C)C1O (stereo unspecified)	0.95
Nc1cccc2c1C(=O)N(C1CCC(=O)NC1=O)C2=O (stereo unspecified)	-1.1
O=c1nc2onnc2c(/C=N\O)[nH]1	1.25
CC(C)(C)C(=O)/C=C/c1ccc(Oc2ccccc2)cc1	-1.6
NC(=O)Cc1ccc2c(c1)[nH]c1ccccc12	0.15
O=c1cc2oc3cc(O)c(O)cc3c(-c3ccccc3O)c-2cc1O	-3.75
C=CCOc1c(CCC)cc(CCC)cc1C(N)=O	1.5
Cc1ccc(CC#N)c(-c2c(CC#N)ccc(C)c2C)c1C	0.85
CCC(CC)c1ncc[nH]1	0.65
CC(C)=CCC/C(C)=C\C(N)=O	0.55
NC(=O)NC(=O)c1nccnc1C(=O)O	-0.2
Cc1cccc(N2CCN(CC(O)COc3ccccc3Cl)CC2)c1 (stereo unspecified)	0.75
CC(C)Cc1nnc(N)s1	1.85
CN(C)C=Nc1ccc(Cl)c(Cl)c1	-1.85
CC(=O)c1c(O)c(C)c(O)c2c1OC1=CC(=O)/C(=C(/C)N)C(=O)C12C (stereo unspecified)	-1.2
Cc1cc(N(C)C)ccc1N=Nc1ccc2ncccc2c1	-0.9

SMILES	T2 sensor activation Q score
CC(C1=C(CCN(C)C)Cc2ccccc21)c1ccccn1 (stereo unspecified)	-1.6
Cn1nc(NC(=O)C(F)(F)F)c2ncc(-c3ccc(Cl)cc3)nc21	0.5
COc1cc(S(N)(=O)=O)c(OC)cc1N	1.7
C=C(C)c1nc(Oc2ccccc2)nc(Oc2ccccc2)n1	-1.35
CC1(C)CC[C@]2(C(=O)n3ccnc3)CC[C@]3(C)[C@H](C(=O)C=C4[C@@]5(C)C=C(C#N)C(=O)C(C)(C)[C@@H]5CC[C@]43C)[C@@H]2C1	0.7
Cc1ccc(NC(=O)Nc2ccccc2C(N)=O)cc1	0.9
O=C1NCCc2c1[nH]c1ccccc21	-0.1
CC(=O)OC1CCC2(C)C(=CCC3C2CCC2(C)C3CC3OC4(CCC(C)CN4)C(C)C32)C1 (stereo unspecified)	1.45
CN1C2CCC1CC(OC(c1ccccc1)c1ccccc1)C2 (stereo unspecified)	0.05
Cc1cc(N)c2cc(NC(=O)C=Cc3ccccc3Cl)ccc2n1	1.5
O=c1cc/c(=N\Nc2ccccc2)c(=O)/c1=N/Nc1ccccc1	-1.7
N#Cc1cnn2ccn(C3OC(CO)C(O)C3O)c12 (stereo unspecified)	1.5
NC(=S)N/N=C\c1cc(-c2cccc(N)c2)ccn1	0
CC(=O)Nc1cc(NC(C)=O)ncn1	-0.9
Cc1c(C#N)c2n(c1C)CCCC(=O)N2	0.6
OC(COc1ccccc1)CN1CCN(c2ccccc2)CC1 (stereo unspecified)	0.2
C1=Cc2ccccc2Nc2ccccc21	-0.4
NNC(=O)Cc1cc(=O)[nH][nH]1	-0.7
CC(=O)NCC(O)c1ccc([N+](=O)[O-])cc1 (stereo unspecified)	0.7
O=c1nccc(SCc2ccc(Cl)cc2Cl)[nH]1	1.5
Cc1cc(C)c(C#N)c(Sc2nc(C)c([N+](=O)[O-])c(C)c2C#N)n1	1.25

Reprinted from above (3 entries):
SMILES	T2 sensor activation Q score
OC(COc1ccccc1)CN1CCN(c2ccccc2)CC1 (stereo unspecified)	0.2
C1=Cc2ccccc2Nc2ccccc21	-0.4
NNC(=O)Cc1cc(=O)[nH][nH]1	-0.7

Remaining list, next part

SMILES	T2 sensor activation Q score
CC(=O)OC1COC(OC(C)=O)CO1 (stereo unspecified)	-1.35
Oc1ccc2ccc3[nH]cnc3c2c1	-0.55
COc1cccc2c1C(=O)c1c(O)c3c(c(O)c1C2=O)C[C@@](O)(C(=O)CO)C[C@@H]3O[C@H]1C[C@H](N)[C@H](O)[C@H](C)O1	-2.2
Cn1c(=O)c2c(nc(Oc3ccccc3)n2C)n(C)c1=O	1.85
NC(=Nc1nc(-c2ccccn2)cc2ccccc12)c1ccccn1	0
O=C(O)c1cncc(Br)c1	-1.05
Nc1nc(Cl)nc2c1ncn2[C@H]1C[C@H](O)[C@@H](CO)O1	-2.15
O=C(NCc1ccco1)Nc1cccc([N+](=O)[O-])c1	1.3
CCN1CCCC(Sc2nc3c([nH]2)c(=S)n(C)c(=O)n3C)C1 (stereo unspecified)	0.45
O=c1[nH]c(=S)[nH]cc1Oc1ccc(Cl)cc1Cl	1.15
C=CCNc1ncnc2sc(SC)nc12	-1.25
OC[C@H]1O[C@@H](n2cnc3c2NC=NC[C@H]3O)C[C@@H]1O	-0.15
O=C(O)/C=C\C(=O)Nc1nccs1	-1.05
Cc1cc(O)c(-c2cc(O)c(C)cc2O)cc1O	-2.95
CCOC(=O)c1c(C)nc(C)c(C(=O)OCC)c1-c1ccc(OC)cc1	0.35
CSc1ncc2ncn(C3OC(CO)C(O)C3O)c2n1 (stereo unspecified)	1.05
CC(=O)Nc1nc(C)c(CCC2OCCO2)c(=O)[nH]1	1.7
NC(N)=NC(N)=Nc1ccc(O)cc1	-0.35
CCC(CNc1cc(OC)cc2cccnc12)NC1CCCCC1 (stereo unspecified)	-0.95
CCOC(=O)CC(=O)NC(C)(C)CCCCC(C)(C)NC(=O)CC(=O)OCC	-0.4
Clc1ccc(Nc2nnc(-c3ccc4c(c3)OCO4)o2)cc1	-0.7

SMILES	T2 sensor activation Q score
C(=C\c1ccncc1)/c1ccncc1	-0.8
Cn1c2c(c(=O)n(C)c1=O)NC1(N2)C(=O)Nc2ccccc21 (stereo unspecified)	0.4
Cc1nnc2nc(-c3ccccc3)nc(-c3ccccc3)n12	1.4
CC(=O)NCC1(O)CCCC(C)C1 (stereo unspecified)	1.25
CSc1ccc2c(c1)C(N1CCN(C)CC1)Cc1ccccc1S2 (stereo unspecified)	-0.55
C=CCc1ccccc1OCC(=O)O	1.7
O/N=C(/c1ccccc1)c1ccc2c3c(cccc13)CC2	0.9
CCOCc1cc(=O)[nH]c(SC)n1	-0.05
CC(=O)n1cc(C2CC(=O)OC3=C2CC(=O)C(C)(C)C3)c2ccccc21 (stereo unspecified)	0.15
COc1c(C=O)c2c(c(OC)c1OC)-c1ccc(OC)c(=O)cc1C(NC(C)=O)CC2 (stereo unspecified)	0.6
O=c1ccnc(Nc2ccc(Cl)cc2)[nH]1	0.5
CCNc1nc(NC(C)C)nc(-c2ccncc2)n1	0.65
CN(C)Cc1cc(C(F)(F)F)ccc1C(O)(c1ccccc1)c1ccccc1	1.1
CCCc1cc(=O)oc2c3c(c4c(c12)OC(C)(C)C=C4)O[C@H](C)[C@@H](C)[C@@H]3O	-0.05
N/C(CC(=O)Nc1cc(C(F)(F)F)ccc1Cl)=N\O	-1.65
Cc1c(NC(=O)Nc2c(Cl)cccc2Cl)c(=O)n(-c2ccccc2)n1C	0.7
CCOC(=O)c1nn(-c2ccccc2)cc1O	0.9
Nc1nc(Cl)cc(Nc2ccccc2Cl)n1	0.6

From the supplement of paper PMC5407854, “Inhibitor of ppGalNAc-T3-mediated O-glycosylation blocks cancer cell invasiveness and lowers FGF23 levels” (eLife, 2017)
